In the supplement of paper PMC12067093, “Discovery and optimisation of a covalent ligand for TRIM25 and its application to targeted protein ubiquitination” (Chemical Science, 2025):
This is one part of the list.

Protein sequences, listed by entry. Tags and fused reporters are not part of them. Lines headed by an entry give the natural chain unless they say otherwise; changes in a name come on top.
UniProt O60306: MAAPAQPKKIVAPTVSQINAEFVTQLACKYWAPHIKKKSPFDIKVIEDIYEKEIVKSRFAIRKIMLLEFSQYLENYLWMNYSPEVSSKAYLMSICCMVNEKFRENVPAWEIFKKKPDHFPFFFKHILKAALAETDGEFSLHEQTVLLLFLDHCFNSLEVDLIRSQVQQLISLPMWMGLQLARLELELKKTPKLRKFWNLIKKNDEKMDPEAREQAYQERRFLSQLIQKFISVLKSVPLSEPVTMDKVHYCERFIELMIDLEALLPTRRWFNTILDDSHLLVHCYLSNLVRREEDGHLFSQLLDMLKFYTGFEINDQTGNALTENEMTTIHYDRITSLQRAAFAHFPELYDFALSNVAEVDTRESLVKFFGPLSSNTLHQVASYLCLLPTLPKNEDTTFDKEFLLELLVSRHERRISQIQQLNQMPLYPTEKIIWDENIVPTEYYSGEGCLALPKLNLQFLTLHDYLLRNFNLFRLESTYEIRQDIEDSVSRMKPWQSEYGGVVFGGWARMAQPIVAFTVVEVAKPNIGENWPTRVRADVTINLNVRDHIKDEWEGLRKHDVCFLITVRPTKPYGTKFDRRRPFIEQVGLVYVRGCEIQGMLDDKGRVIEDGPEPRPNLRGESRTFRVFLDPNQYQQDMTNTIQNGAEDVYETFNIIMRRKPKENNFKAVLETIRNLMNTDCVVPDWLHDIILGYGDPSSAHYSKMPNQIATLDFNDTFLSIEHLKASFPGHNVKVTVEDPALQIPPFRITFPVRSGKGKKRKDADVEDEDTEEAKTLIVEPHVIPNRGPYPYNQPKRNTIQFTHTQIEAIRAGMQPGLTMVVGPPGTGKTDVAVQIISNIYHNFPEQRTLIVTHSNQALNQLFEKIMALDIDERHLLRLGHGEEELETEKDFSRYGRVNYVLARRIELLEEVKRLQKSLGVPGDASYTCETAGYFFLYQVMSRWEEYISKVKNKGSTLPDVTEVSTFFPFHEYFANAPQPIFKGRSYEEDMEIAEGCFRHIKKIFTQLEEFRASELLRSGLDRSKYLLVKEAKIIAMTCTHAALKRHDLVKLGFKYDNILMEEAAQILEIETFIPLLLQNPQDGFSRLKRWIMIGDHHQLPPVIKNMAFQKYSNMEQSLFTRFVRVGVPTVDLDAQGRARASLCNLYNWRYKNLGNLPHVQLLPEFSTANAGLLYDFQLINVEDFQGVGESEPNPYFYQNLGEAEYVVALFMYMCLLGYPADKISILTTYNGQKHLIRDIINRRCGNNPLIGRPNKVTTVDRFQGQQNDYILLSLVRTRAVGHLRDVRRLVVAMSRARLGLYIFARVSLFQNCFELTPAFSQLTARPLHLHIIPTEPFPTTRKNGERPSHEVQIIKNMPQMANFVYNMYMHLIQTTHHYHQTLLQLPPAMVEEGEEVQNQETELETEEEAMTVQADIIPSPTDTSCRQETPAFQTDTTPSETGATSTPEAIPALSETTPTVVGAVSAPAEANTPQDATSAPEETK
UniProt Q92619: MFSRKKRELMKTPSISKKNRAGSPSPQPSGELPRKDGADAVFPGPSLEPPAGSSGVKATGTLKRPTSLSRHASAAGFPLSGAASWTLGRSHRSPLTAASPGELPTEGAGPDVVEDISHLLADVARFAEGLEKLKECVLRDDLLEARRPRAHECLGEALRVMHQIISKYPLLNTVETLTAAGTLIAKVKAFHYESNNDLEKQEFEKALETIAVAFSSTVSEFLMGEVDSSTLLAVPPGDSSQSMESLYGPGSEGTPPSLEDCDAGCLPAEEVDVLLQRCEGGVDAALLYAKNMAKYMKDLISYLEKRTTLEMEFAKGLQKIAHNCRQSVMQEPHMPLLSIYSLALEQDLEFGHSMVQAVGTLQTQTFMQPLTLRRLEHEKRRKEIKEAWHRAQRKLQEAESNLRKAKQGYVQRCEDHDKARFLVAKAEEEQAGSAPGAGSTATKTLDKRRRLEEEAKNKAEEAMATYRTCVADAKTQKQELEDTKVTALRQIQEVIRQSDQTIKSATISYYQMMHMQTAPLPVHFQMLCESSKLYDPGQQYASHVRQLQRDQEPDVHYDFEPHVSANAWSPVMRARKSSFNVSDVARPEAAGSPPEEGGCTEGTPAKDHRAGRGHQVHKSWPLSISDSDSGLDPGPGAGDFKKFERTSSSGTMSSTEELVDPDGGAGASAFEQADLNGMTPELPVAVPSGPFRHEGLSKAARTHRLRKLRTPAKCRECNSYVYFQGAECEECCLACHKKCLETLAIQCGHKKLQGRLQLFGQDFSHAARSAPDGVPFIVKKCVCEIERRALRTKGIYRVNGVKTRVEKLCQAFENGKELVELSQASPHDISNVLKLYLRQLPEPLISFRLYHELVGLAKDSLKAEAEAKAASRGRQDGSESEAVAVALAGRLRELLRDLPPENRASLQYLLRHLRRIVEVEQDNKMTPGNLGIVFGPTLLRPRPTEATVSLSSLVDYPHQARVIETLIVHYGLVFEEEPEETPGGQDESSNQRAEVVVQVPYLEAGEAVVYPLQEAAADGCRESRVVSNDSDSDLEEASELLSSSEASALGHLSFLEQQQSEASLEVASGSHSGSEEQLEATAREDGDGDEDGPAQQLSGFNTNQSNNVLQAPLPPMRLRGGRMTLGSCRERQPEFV
UniProt Q9UKG1: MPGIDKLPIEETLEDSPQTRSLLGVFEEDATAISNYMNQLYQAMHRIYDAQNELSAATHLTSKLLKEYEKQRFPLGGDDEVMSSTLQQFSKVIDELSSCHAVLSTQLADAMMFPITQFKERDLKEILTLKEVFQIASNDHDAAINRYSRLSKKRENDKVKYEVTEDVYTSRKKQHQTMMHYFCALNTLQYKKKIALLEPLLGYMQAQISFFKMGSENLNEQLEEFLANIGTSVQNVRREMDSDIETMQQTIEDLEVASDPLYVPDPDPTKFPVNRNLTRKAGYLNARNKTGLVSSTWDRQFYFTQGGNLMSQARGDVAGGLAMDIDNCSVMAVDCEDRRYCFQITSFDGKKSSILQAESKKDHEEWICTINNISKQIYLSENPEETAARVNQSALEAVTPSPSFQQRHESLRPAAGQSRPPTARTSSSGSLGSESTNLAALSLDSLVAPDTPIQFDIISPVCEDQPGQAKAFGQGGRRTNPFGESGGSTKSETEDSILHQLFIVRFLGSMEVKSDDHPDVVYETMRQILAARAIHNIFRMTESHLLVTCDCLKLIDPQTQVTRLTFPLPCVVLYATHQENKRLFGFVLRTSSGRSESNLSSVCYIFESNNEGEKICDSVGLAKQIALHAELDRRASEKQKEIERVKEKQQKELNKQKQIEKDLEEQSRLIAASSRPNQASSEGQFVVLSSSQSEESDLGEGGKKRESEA
UniProt Q6ZSZ5: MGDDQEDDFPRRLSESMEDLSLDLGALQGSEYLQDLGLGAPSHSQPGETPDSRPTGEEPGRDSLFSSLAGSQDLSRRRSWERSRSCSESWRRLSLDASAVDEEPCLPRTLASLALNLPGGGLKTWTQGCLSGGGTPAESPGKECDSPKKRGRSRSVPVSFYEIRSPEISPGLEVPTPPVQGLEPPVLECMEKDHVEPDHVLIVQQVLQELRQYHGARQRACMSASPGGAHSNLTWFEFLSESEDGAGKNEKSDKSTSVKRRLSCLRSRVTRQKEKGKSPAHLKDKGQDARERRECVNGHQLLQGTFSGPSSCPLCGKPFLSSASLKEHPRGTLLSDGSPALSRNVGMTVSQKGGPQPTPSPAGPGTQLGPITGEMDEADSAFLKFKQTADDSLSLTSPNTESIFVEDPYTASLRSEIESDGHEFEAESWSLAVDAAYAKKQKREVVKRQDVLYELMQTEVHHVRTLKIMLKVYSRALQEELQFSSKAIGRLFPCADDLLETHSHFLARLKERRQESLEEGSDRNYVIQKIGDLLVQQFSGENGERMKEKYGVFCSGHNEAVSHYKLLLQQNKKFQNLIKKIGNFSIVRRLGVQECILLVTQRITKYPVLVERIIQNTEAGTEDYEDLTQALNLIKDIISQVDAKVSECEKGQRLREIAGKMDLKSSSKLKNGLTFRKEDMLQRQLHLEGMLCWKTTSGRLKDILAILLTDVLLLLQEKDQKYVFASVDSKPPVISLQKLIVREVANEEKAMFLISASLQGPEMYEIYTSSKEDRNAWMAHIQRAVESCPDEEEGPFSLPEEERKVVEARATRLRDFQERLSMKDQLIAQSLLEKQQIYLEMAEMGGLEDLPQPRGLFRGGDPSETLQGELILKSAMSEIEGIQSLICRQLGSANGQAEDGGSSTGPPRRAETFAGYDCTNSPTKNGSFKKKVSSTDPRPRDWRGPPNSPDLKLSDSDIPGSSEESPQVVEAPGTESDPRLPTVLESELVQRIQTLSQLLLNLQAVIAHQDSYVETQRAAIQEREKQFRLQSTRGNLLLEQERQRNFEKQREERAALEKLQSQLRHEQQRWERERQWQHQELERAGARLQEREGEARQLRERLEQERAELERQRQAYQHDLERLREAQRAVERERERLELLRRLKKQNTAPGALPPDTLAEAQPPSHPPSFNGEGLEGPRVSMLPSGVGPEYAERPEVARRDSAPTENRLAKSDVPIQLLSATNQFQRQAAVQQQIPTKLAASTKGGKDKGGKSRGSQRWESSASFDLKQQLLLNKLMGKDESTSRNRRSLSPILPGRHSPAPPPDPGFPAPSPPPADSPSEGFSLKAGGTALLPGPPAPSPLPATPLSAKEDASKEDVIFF
UniProt Q9H993: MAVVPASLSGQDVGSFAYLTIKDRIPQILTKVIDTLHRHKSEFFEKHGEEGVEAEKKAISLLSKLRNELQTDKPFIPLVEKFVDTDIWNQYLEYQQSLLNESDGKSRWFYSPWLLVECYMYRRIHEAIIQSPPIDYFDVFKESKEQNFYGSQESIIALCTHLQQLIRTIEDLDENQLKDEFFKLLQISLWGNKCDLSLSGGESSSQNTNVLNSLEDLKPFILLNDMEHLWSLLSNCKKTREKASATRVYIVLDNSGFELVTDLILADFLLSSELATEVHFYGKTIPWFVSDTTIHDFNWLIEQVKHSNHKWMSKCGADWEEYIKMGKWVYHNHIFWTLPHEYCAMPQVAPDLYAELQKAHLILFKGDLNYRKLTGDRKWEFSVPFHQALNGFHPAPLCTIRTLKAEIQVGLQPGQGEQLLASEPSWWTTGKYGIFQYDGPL
UniProt Q9HCE6: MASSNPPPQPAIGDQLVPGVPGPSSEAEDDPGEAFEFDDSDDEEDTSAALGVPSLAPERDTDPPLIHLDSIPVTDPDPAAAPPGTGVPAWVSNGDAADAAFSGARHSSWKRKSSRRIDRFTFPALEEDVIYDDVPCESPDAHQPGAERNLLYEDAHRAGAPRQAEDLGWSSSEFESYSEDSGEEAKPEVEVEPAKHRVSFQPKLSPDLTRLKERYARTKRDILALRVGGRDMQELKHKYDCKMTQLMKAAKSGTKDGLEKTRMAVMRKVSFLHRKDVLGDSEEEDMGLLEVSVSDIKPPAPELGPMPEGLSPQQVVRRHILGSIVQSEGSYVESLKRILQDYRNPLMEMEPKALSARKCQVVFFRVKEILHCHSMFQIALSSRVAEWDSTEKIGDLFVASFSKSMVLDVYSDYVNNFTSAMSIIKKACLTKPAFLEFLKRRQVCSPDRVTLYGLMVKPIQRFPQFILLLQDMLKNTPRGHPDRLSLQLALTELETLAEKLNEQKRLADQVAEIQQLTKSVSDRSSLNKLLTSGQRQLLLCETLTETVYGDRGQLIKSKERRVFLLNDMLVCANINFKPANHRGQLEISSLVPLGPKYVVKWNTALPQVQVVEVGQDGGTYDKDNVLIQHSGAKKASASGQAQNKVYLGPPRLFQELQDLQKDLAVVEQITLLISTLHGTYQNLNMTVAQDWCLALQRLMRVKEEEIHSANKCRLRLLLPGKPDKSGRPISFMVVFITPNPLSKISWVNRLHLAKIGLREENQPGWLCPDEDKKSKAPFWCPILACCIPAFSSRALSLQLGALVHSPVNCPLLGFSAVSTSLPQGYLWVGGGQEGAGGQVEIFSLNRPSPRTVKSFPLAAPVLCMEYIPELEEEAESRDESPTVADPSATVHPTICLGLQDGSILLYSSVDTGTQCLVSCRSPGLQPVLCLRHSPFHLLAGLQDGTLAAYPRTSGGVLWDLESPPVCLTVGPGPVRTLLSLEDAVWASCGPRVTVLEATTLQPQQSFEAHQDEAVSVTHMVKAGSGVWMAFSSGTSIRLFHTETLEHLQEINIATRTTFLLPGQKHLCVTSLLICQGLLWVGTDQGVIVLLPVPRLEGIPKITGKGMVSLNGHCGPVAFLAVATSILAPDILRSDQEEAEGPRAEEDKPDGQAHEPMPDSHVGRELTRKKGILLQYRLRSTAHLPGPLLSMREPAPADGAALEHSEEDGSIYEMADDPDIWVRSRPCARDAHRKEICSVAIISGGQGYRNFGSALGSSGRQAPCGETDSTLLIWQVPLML

Compound: Cc1cc(ccc1-c1ccccc1)C(=O)N1CCCN(CC1)C(=O)CCl [compound 10]
Assay: probe-labelled cysteine peptide fold change vs DMSO (competition) (log2 fold change); higher = less target engagement (more negative = stronger competition)
Settings: THP-1, incubation time: 4 h
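Further: competitive profiling in live THP-1 cells: cysteine peptides tagged with an iodoacetamide desthiobiotin (IA-DTB) probe, intensity after compound treatment relative to DMSO-treated cells.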

Target | probe-labelled cysteine peptide fold change (10 µM) | probe-labelled cysteine peptide fold change (50 µM)
AQR_O60306_28_IVAPTVSQINAEFVTQLACK (UniProt O60306) | 0.0505 | -0.000724
ARHGEF6_Q15052_418_TLMGQCQDLR (UniProt Q15052) | 0.114 | 0.31
ARID2_Q68CP9_82_SCSNAAFALK (UniProt Q68CP9) | -0.0891 | -0.0578
ARHGAP9_Q9BRR9_542_DQVFGCQLESLCQR (UniProt Q9BRR9) | -0.108 | 0.0653
ARPC5_O15511_45_FVDEEDGGDGQAGPDEGEVDSCLR (UniProt O15511) | 0.177 | 0.233
ARAP1_Q96P48_1176_VAGTASGTQHAGDFICTVYLEEK (UniProt Q96P48) | 0.208 | 0.0369
ARL14EP_Q8N8R7_75_SCCDPFNIHKK (UniProt Q8N8R7) | -0.094 | -0.403
ARHGAP45_Q92619_136_ECVLRDDLLEAR (UniProt Q92619) | -0.216 | -0.128
ARPC2_O15144_120_RNCFASVFEK (UniProt O15144) | -0.0863 | -0.105
ARHGAP45_Q92619_783_CVCEIER (UniProt Q92619) | 0.0756 | -0.253
ARID1B_Q8NFD5_1093_LYVCVK (UniProt Q8NFD5) | 0.173 | 0.358
ARHGAP25_P42331_302_FLHEIQLNCAVNK (UniProt P42331) | 0.0597 | 0.0794
ARHGEF10_O15013_808+809_AADCCR (UniProt O15013) | -0.24 | -0.976
APPL1_Q9UKG1_616_ICDSVGLAK (UniProt Q9UKG1) | 0.0218 | 0.104
ARHGAP25_P42331-2_147_VAGTPCGAVFGQR (UniProt P42331) | -0.0097 | -0.0357
ARID1A_O14497_1968_ILEDEPHSKDETPLCTLLDWQDSLAK (UniProt O14497) | -0.0937 | -0.036
ARHGAP11A_Q6P4F7_451_EVNGCSGVNR (UniProt Q6P4F7) | -0.149 | -0.292
ARHGEF18_Q6ZSZ5_105_LSLDASAVDEEPCLPR (UniProt Q6ZSZ5) | -0.0848 | 0.182
ARMT1_Q9H993_159_EQNFYGSQESIIALCTHLQQLIR (UniProt Q9H993) | 0.236 | 0.254
AQR_O60306_1039_IIAMTCTHAALK (UniProt O60306) | 0.0755 | 0.282
ARNT_P27540_62_CDDDQMSNDK (UniProt P27540) | -0.196 | -0.325
ARHGEF2_Q92974_715_TFNGSIELCR (UniProt Q92974) | -0.114 | -0.246
APPL1_Q9UKG1_368_KDHEEWICTINNISK (UniProt Q9UKG1) | -0.00318 | -0.0957
ARHGEF10L_Q9HCE6_988_TLLSLEDAVWASCGPR (UniProt Q9HCE6) | -0.485 | -0.205

As entered above.
Under probe-labelled cysteine peptide fold change (50 µM), ARHGEF10L_Q9HCE6_988_TLLSLEDAVWASCGPR (UniProt Q9HCE6) shows -0.205
Under probe-labelled cysteine peptide fold change (50 µM), ARHGEF18_Q6ZSZ5_105_LSLDASAVDEEPCLPR (UniProt Q6ZSZ5) shows 0.182
